Some of the results follow.
What was measured:
Test in all cases: glycan array binding signal (z-score within array); higher = stronger binding
Conditions in all cases: glycan notation: IUPAC condensed, linker removed
[1] = target: Gal(b1-4)Glc
Outline: (§1)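 Glycan array data came from 3228 arrays in the Consortium for Functional Glycomics database, and only arrays with an available protein sequence were kept. Glycan names were put into IUPAC-condensed notation, and columns mapping to the same glycan were averaged. The binding signal is a within-array Z-score, averaged across arrays of one protein sequence run at different concentrations or buffers and across linkers. A negative Z-score can be read as non-binding.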

[2] = target: Gal(b1-4)Glc6S
Outline: as §1

[3] = target: Gal(b1-4)GlcNAc
Outline: as §1

[4] = target: Gal(b1-4)GlcNAc(a1-6)Gal(b1-4)GlcNAc
Outline: as §1

[5] = target: Gal(b1-4)GlcNAc(b1-2)Man
Outline: as §1

[6] = target: Gal(b1-4)GlcNAc(b1-2)Man(a1-3)Man(b1-4)GlcNAc(b1-4)GlcNAc
Outline: as §1

[7] = target: Gal(b1-4)GlcNAc(b1-2)Man(a1-3)[Gal(b1-4)GlcNAc(b1-2)Man(a1-6)]Man(b1-4)GlcNAc(b1-4)GlcNAc
Outline: as §1

[8] = target: Gal(b1-4)GlcNAc(b1-2)Man(a1-3)[Gal(b1-4)GlcNAc(b1-2)Man(a1-6)]Man(b1-4)GlcNAc(b1-4)[Fuc(a1-6)]GlcNAc
Outline: as §1

[9] = target: Gal(b1-4)GlcNAc(b1-2)Man(a1-3)[Gal(b1-4)GlcNAc(b1-2)Man(a1-6)][Gal(b1-4)GlcNAc(b1-4)]Man(b1-4)GlcNAc(b1-4)[Fuc(a1-6)]GlcNAc
Outline: as §1

[10] = target: Gal(b1-4)GlcNAc(b1-2)Man(a1-3)[Gal(b1-4)GlcNAc(b1-2)Man(a1-6)][GlcNAc(b1-4)]Man(b1-4)GlcNAc(b1-4)[Fuc(a1-6)]GlcNAc
Outline: as §1

[11] = target: Gal(b1-4)GlcNAc(b1-2)Man(a1-3)[GlcNAc(b1-2)Man(a1-6)]Man(b1-4)GlcNAc(b1-4)GlcNAc
Outline: as §1

[12] = target: Gal(b1-4)GlcNAc(b1-2)Man(a1-3)[GlcNAc(b1-4)][Gal(b1-4)GlcNAc(b1-2)Man(a1-6)]Man(b1-4)GlcNAc(b1-4)GlcNAc
Outline: as §1

[13] = target: Gal(b1-4)GlcNAc(b1-2)Man(a1-3)[Man(a1-6)]Man(b1-4)GlcNAc(b1-4)GlcNAc
Outline: as §1

[14] = target: Gal(b1-4)GlcNAc(b1-2)Man(a1-6)Man(b1-4)GlcNAc(b1-4)GlcNAc
Outline: as §1

[15] = target: Gal(b1-4)GlcNAc(b1-2)Man(a1-6)[GlcNAc(b1-2)Man(a1-3)]Man(b1-4)GlcNAc(b1-4)GlcNAc
Outline: as §1

[16] = target: Gal(b1-4)GlcNAc(b1-2)Man(a1-6)[Man(a1-3)]Man(b1-4)GlcNAc(b1-4)GlcNAc
Outline: as §1

[17] = target: Gal(b1-4)GlcNAc(b1-2)[Gal(b1-4)GlcNAc(b1-4)]Man(a1-3)[Gal(b1-4)GlcNAc(b1-2)Man(a1-6)]Man(b1-4)GlcNAc(b1-4)GlcNAc
Outline: as §1

[18] = target: Gal(b1-4)GlcNAc(b1-2)[Gal(b1-4)GlcNAc(b1-4)]Man(a1-3)[Gal(b1-4)GlcNAc(b1-2)[Gal(b1-4)GlcNAc(b1-6)]Man(a1-6)]Man(b1-4)GlcNAc(b1-4)GlcNAc
Outline: as §1

[19] = target: Gal(b1-4)GlcNAc(b1-2)[Gal(b1-4)GlcNAc(b1-4)]Man(a1-3)[GlcNAc(b1-4)][Gal(b1-4)GlcNAc(b1-2)Man(a1-6)]Man(b1-4)GlcNAc(b1-4)GlcNAc
Outline: as §1

[20] = target: Gal(b1-4)GlcNAc(b1-2)[Gal(b1-4)GlcNAc(b1-4)]Man(a1-3)[GlcNAc(b1-4)][Gal(b1-4)GlcNAc(b1-2)[Gal(b1-4)GlcNAc(b1-6)]Man(a1-6)]Man(b1-4)GlcNAc(b1-4)GlcNAc
Outline: as §1

[21] = target: Gal(b1-4)GlcNAc(b1-2)[Gal(b1-4)GlcNAc(b1-6)]Man(a1-6)[Gal(b1-4)GlcNAc(b1-2)Man(a1-3)]Man(b1-4)GlcNAc(b1-4)GlcNAc
Outline: as §1

[22] = target: Gal(b1-4)GlcNAc(b1-2)[Gal(b1-4)GlcNAc(b1-6)]Man(a1-6)[Gal(b1-4)GlcNAc(b1-2)Man(a1-3)]Man(b1-4)GlcNAc(b1-4)[Fuc(a1-6)]GlcNAc
Outline: as §1

[23] = target: Gal(b1-4)GlcNAc(b1-2)[Gal(b1-4)GlcNAc(b1-6)]Man(a1-6)[GlcNAc(b1-4)][Gal(b1-4)GlcNAc(b1-2)Man(a1-3)]Man(b1-4)GlcNAc(b1-4)GlcNAc
Outline: as §1

[24] = target: Gal(b1-4)GlcNAc(b1-2)[Gal(b1-4)GlcNAc(b1-6)]Man(a1-6)[GlcNAc(b1-4)][Gal(b1-4)GlcNAc(b1-2)[Gal(b1-4)GlcNAc(b1-4)]Man(a1-3)]Man(b1-4)GlcNAc(b1-4)[Fuc(a1-6)]GlcNAc
Outline: as §1

[25] = target: Gal(b1-4)GlcNAc(b1-3)Gal(b1-3)GalNAc
Outline: as §1

[26] = target: Gal(b1-4)GlcNAc(b1-3)Gal(b1-3)GlcNAc
Outline: as §1

[27] = target: Gal(b1-4)GlcNAc(b1-3)Gal(b1-4)Glc
Outline: as §1

[28] = target: Gal(b1-4)GlcNAc(b1-3)Gal(b1-4)GlcNAc
Outline: as §1

[29] = target: Gal(b1-4)GlcNAc(b1-3)Gal(b1-4)GlcNAc(b1-2)Man(a1-3)[Gal(b1-4)GlcNAc(b1-3)Gal(b1-4)GlcNAc(b1-2)Man(a1-6)]Man(b1-4)GlcNAc(b1-4)GlcNAc
Outline: as §1

[30] = target: Gal(b1-4)GlcNAc(b1-3)Gal(b1-4)GlcNAc(b1-2)Man(a1-3)[Gal(b1-4)GlcNAc(b1-3)Gal(b1-4)GlcNAc(b1-2)Man(a1-6)]Man(b1-4)GlcNAc(b1-4)[Fuc(a1-6)]GlcNAc
Outline: as §1

B1: Awp1 (Candida glabrata) (protein)
chain: MSLITIFAFLIKATLVLSLDILTPTTLTGDQTFNEDVSVVSSLTLNDGSQYLFNNLLQIAPSSASVTANALAAVSVFTFSLPPSSSLSNSGTLIISNSNTGPSTEQHIVITPNVMANTGTITLSLAHTNTDSSSTLIIDPVTFYNTGTINYESIGSETNDPSLTGNILSIGSSGRTLQNLGTINLNAANSYYLLGTITENSGSINVQKGFLYVNALDFIGNTINLSTTTALAFISPVSQVVRVRGVFFGNIIASVGSSGTFSYNTQTGILTVTTNGVYSYDIGCGYNPALMSGQQETLSFQGNPYDTFLVLVNQPIPSDLTCAAVSSSITPSSSVEPSSSVVPSSSVEPSSSVEPSSSVEPSSSVEPSSSVEPSSSVEPSSSVEPSSSVEPSSSVEPSSSVEPSSSVEPSSSVEPSSSVEPSSSVEPSSSVEPSSSVEPSSSVEPSSSVEPSSSVEPSSLIVPSSSVEPSSSVLPSSSVVPSSSVEPSTPPIPSSSVEPSSSVVPSSPAVPSSSVEPSTPPIPSSSVVSASVFDTSSTLPSSPSVPPSSVSPSTISTPSSSAAPSSFCPTCVSSGTPPAPSSSAIVPTSSAGGGNGGDNREPGAAGQPGAAGQPGAAGQPGAAGQPGAAGQPGAAGQPGAAGQPGAAGQPGAAGQPGAAGQPGAGFGVGSEQPTPGAGAGSGSADGNQSGTGSGTGNGQQGSGQAGSGQAGSGQEGSGQAGSGQAGSGQAGSGQAGSGQAGLDNTASGQSEGGQASAMDGDQSGRDGQSNSGSLLQPNAQQGTGSGTGSDIGADQASGESPGQIGDAQPGSGTDQSSGRHSLAAEARTSQSHSLAADARTRSTTRQTSVIAPDTAPGTASGTAPGTAPGTAVVTTFHGCGTVNHKGMINILLALALLVLL
- glycan array binding signal (z-score) [1]: -0.336
- glycan array binding signal (z-score) [2]: 0.028
- glycan array binding signal (z-score) [3]: 0.304
- glycan array binding signal (z-score) [4]: 3
- glycan array binding signal (z-score) [5]: 0.36
- glycan array binding signal (z-score) [6]: -0.485
- glycan array binding signal (z-score) [7]: 0.579
- glycan array binding signal (z-score) [8]: -0.196
- glycan array binding signal (z-score) [9]: -0.89
- glycan array binding signal (z-score) [10]: -2.22
- glycan array binding signal (z-score) [11]: 0.253
- glycan array binding signal (z-score) [12]: -1.72
- glycan array binding signal (z-score) [13]: 0.057
- glycan array binding signal (z-score) [14]: 1.33
- glycan array binding signal (z-score) [15]: 0.086
- glycan array binding signal (z-score) [16]: 0.615
- glycan array binding signal (z-score) [17]: -0.236
- glycan array binding signal (z-score) [18]: 0.167
- glycan array binding signal (z-score) [19]: -0.307
- glycan array binding signal (z-score) [20]: -0.441
- glycan array binding signal (z-score) [21]: -1.7
- glycan array binding signal (z-score) [22]: 1.55
- glycan array binding signal (z-score) [23]: 0.129
- glycan array binding signal (z-score) [24]: -0.675
- glycan array binding signal (z-score) [25]: -1.28
- glycan array binding signal (z-score) [26]: 0.447
- glycan array binding signal (z-score) [27]: 1.62
- glycan array binding signal (z-score) [28]: 0.812
- glycan array binding signal (z-score) [29]: -0.117
- glycan array binding signal (z-score) [30]: 1.43

Reference: the supplement of paper PMC8728848
